According to paper PMC7461561:

Molecular target: T1, Parkin (murine platelets) (mouse (endogenous in platelets)) (UniProt Q9WVS6)
T1 sequence: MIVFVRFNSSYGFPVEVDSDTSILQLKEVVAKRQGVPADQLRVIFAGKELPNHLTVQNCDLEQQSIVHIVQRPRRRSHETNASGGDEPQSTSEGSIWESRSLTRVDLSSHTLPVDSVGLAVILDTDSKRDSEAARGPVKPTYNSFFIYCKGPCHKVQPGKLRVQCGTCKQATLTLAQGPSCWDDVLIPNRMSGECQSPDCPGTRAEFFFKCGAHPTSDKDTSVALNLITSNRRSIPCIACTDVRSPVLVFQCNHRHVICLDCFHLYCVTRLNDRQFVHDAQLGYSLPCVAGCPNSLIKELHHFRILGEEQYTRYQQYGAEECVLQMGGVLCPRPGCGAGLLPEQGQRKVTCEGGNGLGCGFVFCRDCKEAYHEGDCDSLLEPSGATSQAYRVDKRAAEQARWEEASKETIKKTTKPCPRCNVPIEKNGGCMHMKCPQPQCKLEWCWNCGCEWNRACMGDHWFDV
Assay: co-IP; 500 ug pooled murine platelet lysates (3 WT, 5 DM) with specific antibody overnight at 4 °C, protein A/G sepharose beads, Western blot, 10% input

binding: binds
Substance: 14-3-3 (murine platelets) (mouse (endogenous in platelets))

These are yes or no findings as the source states them, for the method shown. In cells and extracts the contact can be indirect. Binding calls can cover weak binding; strength is not graded here.
